# Results reported in PMC5996148.
# Where “and” joins values, the source holds several entries; their conditions need not be identical. Equal values may be shown once. This is one part of the list.
# Columns and labels:
# Experiment in all cases: protein microarray (ProtoArray v5.0), streptavidin-Alexa Fluor 647
# Conditions in all cases: 3'-biotin; 20 mM Tris (pH 7.5), 5 mM MgCl2, 100 mM KCl, 0.1% Tween-20, A/T-rich and random oligonucleotide blockers; temperature not stated; high values mean tight binding
# C11orf74 (human) = tested on: C11orf74 (human)
# C12orf10 (human) = tested on: C12orf10 (human)
# C12orf41 (human) = tested on: C12orf41 (human)
# C12orf48 (human) = tested on: C12orf48 (human)
# C14orf100 (human) = tested on: C14orf100 (human)
# C14orf119 (human) = tested on: C14orf119 (human)
# C14orf122 (human) = tested on: C14orf122 (human)
# C14orf130 (human) = tested on: C14orf130 (human)
# C14orf131 (human) = tested on: C14orf131 (human)
# C14orf159 (human) = tested on: C14orf159 (human)
# C14orf172 (human) = tested on: C14orf172 (human)
# C15orf38 (human) = tested on: C15orf38 (human)
# C15orf41 (human) = tested on: C15orf41 (human)
# C16orf13 (human) = tested on: C16orf13 (human)
# C16orf30 (human) = tested on: C16orf30 (human)
# C16orf74 (human) = tested on: C16orf74 (human)
# C17orf56 (human) = tested on: C17orf56 (human)
# C19orf12 (human) = tested on: C19orf12 (human)
# C1orf119 (human) = tested on: C1orf119 (human)
# C1orf162 (human) = tested on: C1orf162 (human)
sequence,measurement,setting,value
GGTGACAGGGGTATGGGGAGGGG [G4-2 biotinylated (Ct1)],binding signal,C11orf74 (human),-0.396 z-score
same,binding signal,C12orf10 (human),-0.374 z-score
same,binding signal,C12orf41 (human),-0.387 z-score
same,binding signal,C12orf48 (human),-0.402 z-score
same,binding signal,C14orf100 (human),-0.363 z-score
same,binding signal,C14orf119 (human),-0.41 z-score
same,binding signal,C14orf122 (human),-0.382 z-score
same,binding signal,C14orf130 (human),-0.392 z-score
same,binding signal,C14orf131 (human),-0.4 z-score and -0.369 z-score
same,binding signal,C14orf159 (human),-0.371 z-score
same,binding signal,C14orf172 (human),-0.361 z-score
same,binding signal,C15orf38 (human),-0.365 z-score
same,binding signal,C15orf41 (human),-0.383 z-score
same,binding signal,C16orf13 (human),-0.382 z-score
same,binding signal,C16orf30 (human),-0.392 z-score
same,binding signal,C16orf74 (human),-0.385 z-score
same,binding signal,C17orf56 (human),-0.386 z-score
same,binding signal,C19orf12 (human),-0.401 z-score
same,binding signal,C1orf119 (human),-0.359 z-score
same,binding signal,C1orf162 (human),-0.377 z-score

# For convenience, part of the list above:
sequence,measurement,setting,value
GGTGACAGGGGTATGGGGAGGGG [G4-2 biotinylated (Ct1)],binding signal,C14orf159 (human),-0.371 z-score
same,binding signal,C14orf172 (human),-0.361 z-score
